In article PMC12098900:
Results are given in words; binding and its absence hold for the method and conditions named. Binding seen in cells or lysates may run through a third protein. Some binding calls cover weakened binding; strength is not graded here.

By UniProt entry, the sequences of proteins in these tests, tags left out.
UniProt Q9WVH4: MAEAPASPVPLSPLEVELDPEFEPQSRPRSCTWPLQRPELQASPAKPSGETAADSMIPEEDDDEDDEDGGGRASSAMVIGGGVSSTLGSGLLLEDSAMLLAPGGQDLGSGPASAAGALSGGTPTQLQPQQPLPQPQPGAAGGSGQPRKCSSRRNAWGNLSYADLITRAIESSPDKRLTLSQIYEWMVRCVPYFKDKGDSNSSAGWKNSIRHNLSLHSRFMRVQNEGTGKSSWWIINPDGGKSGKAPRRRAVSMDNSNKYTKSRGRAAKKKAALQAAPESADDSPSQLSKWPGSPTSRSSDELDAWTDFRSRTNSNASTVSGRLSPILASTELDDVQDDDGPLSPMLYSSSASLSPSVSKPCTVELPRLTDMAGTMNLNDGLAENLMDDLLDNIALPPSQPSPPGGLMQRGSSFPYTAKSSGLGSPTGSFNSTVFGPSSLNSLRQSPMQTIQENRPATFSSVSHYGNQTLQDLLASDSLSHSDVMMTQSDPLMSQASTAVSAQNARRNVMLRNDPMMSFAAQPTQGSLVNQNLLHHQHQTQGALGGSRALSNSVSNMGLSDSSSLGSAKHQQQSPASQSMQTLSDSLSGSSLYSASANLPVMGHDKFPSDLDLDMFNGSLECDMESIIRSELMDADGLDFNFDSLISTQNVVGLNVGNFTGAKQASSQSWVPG
UniProt P70288: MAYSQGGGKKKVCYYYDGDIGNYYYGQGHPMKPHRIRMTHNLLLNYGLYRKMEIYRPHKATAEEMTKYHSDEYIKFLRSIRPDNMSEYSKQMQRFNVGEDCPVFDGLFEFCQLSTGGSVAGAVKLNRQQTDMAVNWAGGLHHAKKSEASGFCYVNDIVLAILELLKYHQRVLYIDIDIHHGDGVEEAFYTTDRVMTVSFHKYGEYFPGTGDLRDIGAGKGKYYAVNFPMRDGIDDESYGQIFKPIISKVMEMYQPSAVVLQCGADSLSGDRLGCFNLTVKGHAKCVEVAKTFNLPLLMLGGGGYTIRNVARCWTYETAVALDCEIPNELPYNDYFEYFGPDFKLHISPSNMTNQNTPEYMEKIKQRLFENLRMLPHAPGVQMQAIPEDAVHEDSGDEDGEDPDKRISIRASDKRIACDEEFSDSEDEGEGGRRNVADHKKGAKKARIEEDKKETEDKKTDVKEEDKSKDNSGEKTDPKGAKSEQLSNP

Molecular target: forkhead box O3 (FOXO3) (not stated (endogenous in macrophages; RAW264.7 mouse or THP-1 human cells cultured)) (UniProt Q9WVH4)
Assay: co-IP; lysates of ox-LDL (60 ug/mL)-loaded macrophages, untreated or infected with Pg or KDP136 (MOI = 100) for 24 h; specific primary antibodies 4 °C 12 h, protein A agarose beads 4 °C 4 h, four washes, western blot

**Q.** For “histone deacetylase 2 (HDAC2) (from UniProt P70288 1-488)”, which binding is on record?
**A.** Its binding is “binds”.
